# From paper PMC10472371, “Discovery of E2730, a novel selective uncompetitive GAT1 inhibitor, as a candidate for anti‐seizure medication” (Epilepsia Open, 2023)
# Tested on: corneal kindling mice
# Experiment: Corneal kindling in mice
# Format: in vivo, mouse
# [1] = rotarod TD50 / corneal kindling ED50, worked out from literature values
SMILES,"Protective index (i.e., TD50/ED50) [1]","Protective index (i.e., TD50/ED50) (rotarod TD50 / corneal kindling ED50, from the authors' own values)"
"CC[C@@H](C(N)=O)N1CCCC1=O [Levetiracetam, levetiracetam]",>31.2,–
NS(=O)(=O)N[C@H]1c2c(F)cc(F)cc2CC1(F)F [E2730],–,44.3
"O=C1CN=C(c2ccccc2Cl)c2cc([N+](=O)[O-])ccc2N1 [Clonazepam, clonazepam]",6.5,–
"CCC1(C)CC(=O)NC1=O (centres unmarked) [Ethosuximide, ethosuximide]",<1.3,–
"Cc1ccsc1C(=CCCN1CCC[C@@H](C(=O)O)C1)c1sccc1C [Tiagabine, tiagabine]",2.5,–
